In patent US20030157516A1, “G protein coupled receptor” (priority 2000, published 2003):
At least one structure is not confirmed: it was looked up by name or label, or the drawing left a doubt.

Tests used:
[1] = target: T1, adenine binding rat receptor (Rattus norvegicus, UniProt Q7TN49); assay: cAMP measurements on CHO cells transiently transfected (forskolin stimulated); format: cell-based
T1 construct: expressed in transfected cells; host or cells: CHO cells, transient, lipofectamine PLUS
T1 sequence (Q7TN49 1-304): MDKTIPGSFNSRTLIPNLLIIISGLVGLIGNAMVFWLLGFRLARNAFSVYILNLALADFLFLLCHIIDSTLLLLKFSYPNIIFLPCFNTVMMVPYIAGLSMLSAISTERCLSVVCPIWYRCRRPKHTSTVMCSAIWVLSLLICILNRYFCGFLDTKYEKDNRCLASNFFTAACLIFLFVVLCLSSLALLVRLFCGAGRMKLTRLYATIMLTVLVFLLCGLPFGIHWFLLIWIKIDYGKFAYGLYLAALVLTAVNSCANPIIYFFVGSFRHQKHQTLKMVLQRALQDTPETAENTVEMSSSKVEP
Method: a) Methods—For transiently transfected CHO cells, cAMP measurements were performed using the direct RIA kit from NEN (Belgium).
The cells were collected from 50 mm petri dishes by adding 1 ml 0.04% EDTA and re-suspending them in PBS (without Ca^2+ and Mg^2+). The cells were then centrifuged for 5 minutes at 1,500 RPM, the supernatant was removed and the pellet was re-suspended in stimulation buffer (provided by the supplier, NEN). The cells were counted and 50 μl was added to each well of a 96-well flashplate at a density of 10^6 cells/well. A standard curve of cAMP was prepared in stimulation buffer, covering a range from 10 to 1,000 nM, and 50 μl was added to the flashplate.
The compounds were diluted in PBS with forskolin (at 50 μM), and 50 μl of the ligand, 2 times the final concentration, was added to the cells and incubated for 20 minutes at 37° C. After the 20 minutes incubation, 100 μl of the [^125I]cAMP tracer (2 μCi) was added to each well, resulting in a final volume of 200 μl/well. The plate was left at room temperature, until being counted in the Topcount™ microplate scintillation counter (Packard, Netherlands). The sigmoid concentration response curves (duplicate points) were analyzed using the GraphPad Prism program (GraphPad Software, Calif., USA).
(§1) a) Methods: Two days before the experiment the cells were seeded out in a 96 well plate at a density required for approximately 90% confluence at the day of the experiment. After removal of the growth medium, the cells were washed twice with a controlled salt solution (CSS) containing 25 mM Tris-HCl, pH 7.4, 120 mM NaCl, 5.4 mM KCl, 0.8 mM MgCl2, 1.8 mM CaCl2, 15 mM glucose and 15 mg/l phenol red, with an addition of a phosphodiesterase inhibitor IBMX (3-isobutyl-1-methylxanthine) in a concentration of 1 mM and […]. Basal cAMP levels were determined in CSS containing these additives and maximally stimulated cAMP levels were determined in the presence of 50 μM forskolin. For testing agonistic activity, the compounds were incubated with the cells for 20 minutes at 37° C. The reaction was stopped by addition of ice cold HClO4 (1N) and stored at −20° C. After thawing the mixtures were neutralized with an equivalent amount of phosphate buffered KOH, left at 4° C. during 30 minutes to allow the salts to precipitate and centrifuged at 2,000 RPM for 5 minutes at 4° C.
(§2) For the quantitative determination of the cAMP levels, a 96-well Flashplate radioimmunoassay kit from NEN was used, according to the protocol of the supplier. The sigmoid concentration response curves (duplicate points) were analyzed using the GraphPad Prism program.

[2] = target: T1, adenine binding rat receptor; assay: cAMP measurements on CHO cells permanently transfected (clone 28); format: cell-based
Method: For permanently transfected CHO cells, cAMP measurements were performed using the indirect RIA kit from NEN (Belgium).
as §1, §2

C=C[C@@]1(C)CC(=O)[C@]2(O)[C@@]3(C)[C@@H](O)CCC(C)(C)[C@@H]3[C@H](O)[C@H](OC(C)=O)[C@@]2(C)O1 [forskolin]
cAMP level with forskolin 50 μM ([1]; direct assay, 0.5% hiFCS): 145 pmol/well
cAMP level with forskolin 50 μM ([1]; direct assay, 2% hiFCS): 105 pmol/well
cAMP level with forskolin 50 μM ([1]; indirect assay, 0.5% hiFCS): 74 pmol/well
cAMP level with forskolin 50 μM ([1]; indirect assay, 2% hiFCS): 62 pmol/well
cAMP level with forskolin 50 μM ([2]; 0.5% hiFCS, induction): 45 pmol/well
cAMP level with forskolin 50 μM ([2]; 0.5% hiFCS, no induction): 44 pmol/well
cAMP level with forskolin 50 μM ([2]; 10% hiFCS, induction): 65 pmol/well
cAMP level with forskolin 50 μM ([2]; 10% hiFCS, no induction): 142 pmol/well
